Results are given in words; binding and its absence hold for the method and conditions named. Binding seen in cells or lysates may run through a third protein. Some binding calls cover weakened binding; strength is not graded here. Sequences can lack the tags named with a protein.
Molecular target: T1, Myc-1-186aa of PHF2 (truncation containing PHD domain) (human) (UniProt O75151)
T1 sequence: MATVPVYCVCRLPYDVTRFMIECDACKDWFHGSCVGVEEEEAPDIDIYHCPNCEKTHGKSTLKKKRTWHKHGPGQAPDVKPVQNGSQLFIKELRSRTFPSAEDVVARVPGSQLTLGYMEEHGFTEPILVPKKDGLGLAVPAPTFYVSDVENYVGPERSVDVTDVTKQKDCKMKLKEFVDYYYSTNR
Assay: co-IP; 293T cells co-transfected with a Myc-tagged and a Flag-tagged construct; whole-cell lysate; anti-Flag, anti-Myc or anti-IgG immunoprecipitates, protein A agarose, 4 °C; immunoblot

B1: Flag-353-1096aa of PHF2, WT (domain or fragment, UniProt O75151 353-1096)
chain: RRLKLGSLTQFPNFETACWYMGKHLLEAFKGSHKSGKQLPPHLVQGAKILNGAFRSWTKKQALAEHEDELPEHFKPSQLIKDLAKEIRLSENASKAVRPEVNTVASSDEVCDGDREKEEPPSPIEATPPQSLLEKVSKKKTPKTVKMPKPSKIPKPPKPPKPPRPPKTLKLKDGGKKKGKKSRESASPTIPNLDLLEAHTKEALTKMEPPKKGKATKSVLSVPNKDVVHMQNDVERLEIREQTKSKSEAKWKYKNSKPDSLLKMEEEQKLEKSPLAGNKDNKFSFSFSNKKLLGSKALRPPTSPGVFGALQNFKEDKPKPVRDEYEYVSDDGELKIDEFPIRRKKNAPKRDLSFLLDKKAVLPTPVTKPKLDSAAYKSDDSSDEGSLHIDTDTKPGRNARVKKESGSSAAGILDLLQASEEVGALEYNPSSQPPASPSTQEAIQGMLSMANLQASDSCLQTTWGAGQAKGSSLAAHGARKNGGGSGKSAGKRLLKRAAKNSVDLDDYEEEQDHLDACFKDSDYVYPSLESDEDNPIFKSRSKKRKGSDDAPYSPTARVGPSVPRQDRPVREGTRVASIETGLAAAAAKLSQQEEQKSKKKKSAKRKLTPNTTSPSTSTSISAGTTSTSTTPASTTPASTTPASTSTASSQASQEGSSPEPPPESHSSSLADHEYTAAGTFTGAQAGRTSQPMAPGVFLTQRRPSASSPNNNTAAKGKRTKKGMATAKQRLGKILKIHRNGKLLL
With B1 as the binder, how does the binding read?
Its binding is “binds”.

B2: Flag-353-1096aa of PHF2, S655A (domain or fragment, UniProt O75151 353-1096)
chain: RRLKLGSLTQFPNFETACWYMGKHLLEAFKGSHKSGKQLPPHLVQGAKILNGAFRSWTKKQALAEHEDELPEHFKPSQLIKDLAKEIRLSENASKAVRPEVNTVASSDEVCDGDREKEEPPSPIEATPPQSLLEKVSKKKTPKTVKMPKPSKIPKPPKPPKPPRPPKTLKLKDGGKKKGKKSRESASPTIPNLDLLEAHTKEALTKMEPPKKGKATKSVLSVPNKDVVHMQNDVERLEIREQTKSKSEAKWKYKNSKPDSLLKMEEEQKLEKSPLAGNKDNKFSFSFSNKKLLGSKALRPPTAPGVFGALQNFKEDKPKPVRDEYEYVSDDGELKIDEFPIRRKKNAPKRDLSFLLDKKAVLPTPVTKPKLDSAAYKSDDSSDEGSLHIDTDTKPGRNARVKKESGSSAAGILDLLQASEEVGALEYNPSSQPPASPSTQEAIQGMLSMANLQASDSCLQTTWGAGQAKGSSLAAHGARKNGGGSGKSAGKRLLKRAAKNSVDLDDYEEEQDHLDACFKDSDYVYPSLESDEDNPIFKSRSKKRKGSDDAPYSPTARVGPSVPRQDRPVREGTRVASIETGLAAAAAKLSQQEEQKSKKKKSAKRKLTPNTTSPSTSTSISAGTTSTSTTPASTTPASTTPASTSTASSQASQEGSSPEPPPESHSSSLADHEYTAAGTFTGAQAGRTSQPMAPGVFLTQRRPSASSPNNNTAAKGKRTKKGMATAKQRLGKILKIHRNGKLLL
For B2, which binding is on record?
The binding was “binds”.

Source: article PMC9986243
